Reference: EP3546476A1 (Repligen Corporation, dated 2019)

Biological target: T1, Panitumomab (IgG2)
T1 construct: Used as the IgG2 sample; also called Panitumumab
Assay: SPR, Biacore 3000, CM5 chip, 25 °C, Langmuir 1:1 model

B1: cs14 (designed binder)
chain: IAAKHDKDQQAAFYEILHLPNLTEDQRNAFIQSLRDDPSVSLEILGEAKKLNDAQAPPWSHPQFEK
For B1, the Kd was 7.42 nM.
